PubChem BioAssay AID1259405 – NCATS, 2018

Aim: 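Knock-downs that lift recombinant protein yield in hamster ovary cells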 (primary screen)
Cell system: Chinese hamster CHO-K1 ovary cells with stable secreted eGFP expression
Knock-down reagent: single siRNA against mouse genes, 0.8 pmol siRNA per well (2 µl of 400 nM stock)
Time to read-out: 3 days
Measured: 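Percent of the per-plate non-targeting control median for intracellular GFP per well by laser scanning cytometry and for cell viability by ATP luminescence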
Scale: GFP, % of control: higher = more GFP per well, higher productivity
Active means: 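a knock-down is called active if GFP reaches 120% or more of non-targeting control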
The whole screen tested about 50,000 reagents; this is a part drawn at random. In the full data, about 4,000 (8%) were called active. 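Mouse siRNA library applied to hamster cells; one well for each siRNA.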 Reagents against one gene are numbered here. Not all columns of the deposit are shown.

GFP, % of control, by target gene and reagent
Stag3: #1 118 inactive; #2 127 active; #3 46.2 inactive
Kat7: #1 63.7 inactive; #2 73.1 inactive; #3 80 inactive
Zc3h6: #1 101 inactive; #2 30.8 inactive; #3 79 inactive
Cdk20: #1 35.4 inactive; #2 116 inactive; #3 57.9 inactive
Cdh4: #1 66.1 inactive; #2 41.5 inactive; #3 21.6 inactive
Matn4: #1 72.4 inactive; #2 104 inactive
Nutm1: #1 87 inactive; #2 70.4 inactive; #3 59.8 inactive
Il1b: #1 133 active; #2 98.7 inactive
Got2: #1 51.5 inactive; #2 51.2 inactive; #3 95.3 inactive
H3c8: #1 142 active; #2 75.9 inactive; #3 53.2 inactive
Msx3: #1 64.1 inactive; #2 57.8 inactive; #3 41.2 inactive
Lipf: #1 105 inactive; #2 63.4 inactive; #3 54.1 inactive

An excerpt of the results above, for reference:
GFP, % of control, by target gene and reagent
Matn4: #1 72.4 inactive; #2 104 inactive
Nutm1: #1 87 inactive; #2 70.4 inactive; #3 59.8 inactive
